# From the supplement of paper PMC4604168 (melanoma cell lines)
# This is one part of the list. Single values are uncertain, as repeats are few or missing.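 Cells were imaged in 1,536-well plates, and nuclei stained with an antibody against cleaved PARP were counted against all DNA-stained nuclei to give the apoptosis fraction. Screening doses were chosen to leave most cells alive, and resting and induced cleaved-PARP levels differ strongly between cell lines.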
# Key:
# Assay in all cases: cleaved PARP positive nuclei fraction relative to DMSO control; melanoma cells; higher = more apoptosis
# Conditions in all cases: library dose: low library concentration; 72 h
# MZ2-MEL = tested on: MZ2-MEL
# MeWo = tested on: MeWo
# RPMI7951 = tested on: RPMI7951
# RVH-421 = tested on: RVH-421
# SkMel28 = tested on: SkMel28
# SkMel2 = tested on: SkMel2
# SkMel30 = tested on: SkMel30
# SkMel5 = tested on: SkMel5
# UACC257 = tested on: UACC257
# UACC62 = tested on: UACC62
SMILES,cleaved PARP positive nuclei fraction (MZ2-MEL),cleaved PARP positive nuclei fraction (MeWo),cleaved PARP positive nuclei fraction (RPMI7951),cleaved PARP positive nuclei fraction (RVH-421),cleaved PARP positive nuclei fraction (SkMel28),cleaved PARP positive nuclei fraction (SkMel2),cleaved PARP positive nuclei fraction (SkMel30),cleaved PARP positive nuclei fraction (SkMel5),cleaved PARP positive nuclei fraction (UACC257),cleaved PARP positive nuclei fraction (UACC62)
"CC(=O)c1c(C)c2cnc(Nc3ccc(N4CCNCC4)cn3)nc2n(C2CCCC2)c1=O [palbociclib] + C[C@@H]1CCN(C(=O)CC#N)C[C@@H]1N(C)c1ncnc2[nH]ccc12 [CP690550] (first compound 0.04 µM, partner dose 1 µM)",161%,142%,61.7%,92.1%,142%,54.8%,95.1%,140%,307%,86.9%
"COc1cc(Nc2ncc(F)c(Nc3ccc4c(n3)NC(=O)C(C)(C)O4)n2)cc(OC)c1OC [Tamatinib] + CO[C@@H]1[C@H](N(C)C(=O)c2ccccc2)C[C@H]2O[C@]1(C)n1c3ccccc3c3c4c(c5c6ccccc6n2c5c31)C(=O)NC4 [Midostaurin] (first compound 0.4 µM, partner dose 0.08 µM)",188%,215%,63.9%,121%,74.7%,136%,70.3%,81.6%,133%,127%
"OCc1c[nH]c2ccccc12 [Indole-3-carbinol] + CCN(CC)CCCCNc1ncc2cc(-c3cc(OC)cc(OC)c3)c(NC(=O)NC(C)(C)C)nc2n1 [PD173074] (first compound 0.8 µM, partner dose 0.1 µM)",76.4%,120%,64.8%,124%,96.5%,88.3%,83%,228%,45.9%,172%
"OCc1c[nH]c2ccccc12 [Indole-3-carbinol] + c1cc(-c2cnn3cc(-c4ccc(OCCN5CCCCC5)cc4)cnc23)ccn1 [Dorsomorphin] (first compound 0.8 µM, partner dose 0.4 µM)",95.4%,60.2%,146%,193%,104%,21.3%,48.3%,77.9%,50.7%,143%
"COCC[n+]1c2c(n(Cc3cnccn3)c1C)C(=O)c1ccccc1C2=O + OCCn1cc(-c2cnc3nnn(Cc4ccc5ncccc5c4)c3n2)cn1 [PF04217903] (first compound 0.0004 µM, partner dose 1 µM)",186%,141%,93.3%,99.8%,82%,78.9%,199%,150%,104%,116%
"Nc1cccc2c1CN(C1CCC(=O)NC1=O)C2=O (stereo not given) [lenalidomide] + Cn1cncc1[C@@](N)(c1ccc(Cl)cc1)c1ccc2c(c1)c(-c1cccc(Cl)c1)cc(=O)n2C [tipifarnib] (first compound 1 µM, partner dose 0.01 µM)",119%,72.8%,292%,113%,129%,241%,68.4%,68.2%,57.6%,176%
"OCCn1cc(-c2cnc3nnn(Cc4ccc5ncccc5c4)c3n2)cn1 + O=C(O)c1ccc(-c2c[nH]c3ncc(-c4ccccc4)cc23)cc1C1CCCC1 [GSK650394] (first compound 1 µM, partner dose 0.16 µM)",108%,106%,110%,202%,127%,174%,64.6%,149%,107%,93%
"COCC[n+]1c2c(n(Cc3cnccn3)c1C)C(=O)c1ccccc1C2=O + COc1cc2c(Oc3ccc4[nH]c(C)cc4c3F)ncnc2cc1OCCCN1CCCC1 [cediranib] (first compound 0.0004 µM, partner dose 0.4 µM)",117%,493%,51.3%,46.6%,28.5%,101%,68.4%,256%,216%,173%
"C=CCNC1=C2C[C@@H](C)C[C@H](OC)[C@H](O)[C@@H](C)/C=C(\C)[C@H](OC(N)=O)[C@@H](OC)/C=C\C=C(/C)C(=O)NC(=CC1=O)C2=O [Tanespimycin] + O=S(=O)(c1ccccc1)N(CC(F)(F)F)c1ccc(C(O)(C(F)(F)F)C(F)(F)F)cc1 [T0901317] (first compound 0.002 µM, partner dose 1.4 µM)",120%,96.5%,22.9%,95.2%,70.2%,87.3%,74%,87.5%,72%,70.8%
"Clc1ccc(Nc2nnc(Cc3ccncc3)c3ccccc23)cc1 [vatalanib] + O=C(Nc1cccc(Cl)c1)Nc1ncc(CCNc2ncnc3ccsc23)s1 [SNS314] (first compound 2 µM, partner dose 0.0008 µM)",170%,128%,69.8%,25.9%,111%,95.5%,217%,70.6%,100%,75.7%
"C#Cc1cccc(Nc2ncnc3cc(OCCOC)c(OCCOC)cc23)c1 [erlotinib] + O=C(CCCCCCC(=O)Nc1ccccc1)NO [vorinostat] (first compound 0.8 µM, partner dose 0.08 µM)",86%,34.7%,129%,202%,244%,200%,34.8%,101%,256%,216%
"CC(=O)c1c(C)c2cnc(Nc3ccc(N4CCNCC4)cn3)nc2n(C2CCCC2)c1=O [palbociclib] + Cc1cc(N2CCOCC2)cc2[nH]c(-c3c(NC[C@@H](O)c4cccc(Cl)c4)cc[nH]c3=O)nc12 [BMS536924] (first compound 0.04 µM, partner dose 0.2 µM)",99.8%,43.4%,255%,275%,98.8%,59.1%,128%,51.6%,179%,165%
"Cn1c(Nc2ccc(C(F)(F)F)cc2)nc2cc(Oc3ccnc(-c4ncc(C(F)(F)F)[nH]4)c3)ccc21 + Cc1cc(N2CCOCC2)cc2[nH]c(-c3c(NC[C@@H](O)c4cccc(Cl)c4)cc[nH]c3=O)nc12 [BMS536924] (first compound 0.08 µM, partner dose 0.2 µM)",294%,177%,373%,167%,56.2%,212%,140%,161%,833%,123%
"Clc1ccc(Nc2nnc(Cc3ccncc3)c3ccccc23)cc1 [vatalanib] + NCC(=O)Nc1ccc(-n2nc(C(F)(F)F)cc2-c2ccc3c(ccc4ccccc43)c2)cc1 [OSU03012] (first compound 2 µM, partner dose 1 µM)",457%,122%,452%,154%,31.6%,292%,143%,37.5%,136%,57%
"Cn1nnc2c(C(N)=O)ncn2c1=O [temozolomide] + C=CCn1c(=O)c2cnc(Nc3ccc(N4CCN(C)CC4)cc3)nc2n1-c1cccc(C(C)(C)O)n1 [MK1775] (first compound 2 µM, partner dose 0.02 µM)",112%,69.7%,153%,83%,120%,88.5%,80.3%,141%,91.2%,202%
"Cc1ccc(NC(=O)c2cccc(N(C)C)c2)cc1NC(=O)c1ccc(O)cc1 + COc1cc2c(Oc3ccc4[nH]c(C)cc4c3F)ncnc2cc1OCCCN1CCCC1 [cediranib] (first compound 2 µM, partner dose 0.4 µM)",173%,140%,43.8%,114%,64%,75.8%,76.6%,203%,33.7%,73.9%
"Clc1ccc(Nc2nnc(Cc3ccncc3)c3ccccc23)cc1 [vatalanib] + O=C(CCCCCCC(=O)Nc1ccccc1)NO [vorinostat] (first compound 2 µM, partner dose 0.08 µM)",165%,170%,48.7%,88.6%,65%,178%,65.1%,42.4%,78.2%,87.6%
"COCC[n+]1c2c(n(Cc3cnccn3)c1C)C(=O)c1ccccc1C2=O + O=C(CCCCCCC(=O)Nc1ccccc1)NO [vorinostat] (first compound 0.0004 µM, partner dose 0.08 µM)",291%,29.2%,78.1%,111%,45.9%,179%,97.9%,64.3%,80.9%,78%
"CC(=O)c1c(C)c2cnc(Nc3ccc(N4CCNCC4)cn3)nc2n(C2CCCC2)c1=O [palbociclib] + O=C(O)c1ccc(-c2c[nH]c3ncc(-c4ccccc4)cc23)cc1C1CCCC1 [GSK650394] (first compound 0.04 µM, partner dose 0.16 µM)",102%,27.7%,107%,70.7%,253%,159%,71.4%,136%,32.8%,93%
"O=C(Nc1cccc(Cl)c1)Nc1ncc(CCNc2ncnc3ccsc23)s1 + CN(C)S(=O)(=O)c1ccc2c(c1)/C(=C/c1cc3c([nH]1)CCCC3)C(=O)N2 [SU6656] (first compound 0.0008 µM, partner dose 0.4 µM)",133%,58.7%,129%,63.8%,138%,62.9%,207%,600%,69.4%,182%
"O=C(Nc1cccc(Cl)c1)Nc1ncc(CCNc2ncnc3ccsc23)s1 + COc1cc2c(Oc3ccc4[nH]c(C)cc4c3F)ncnc2cc1OCCCN1CCCC1 [cediranib] (first compound 0.0008 µM, partner dose 0.4 µM)",136%,47.2%,37.9%,320%,116%,71.8%,57.4%,76.8%,32.4%,42%
"Cc1ccc(NC(=O)c2cccc(N(C)C)c2)cc1NC(=O)c1ccc(O)cc1 + CO[C@@H]1[C@H](N(C)C(=O)c2ccccc2)C[C@H]2O[C@]1(C)n1c3ccccc3c3c4c(c5c6ccccc6n2c5c31)C(=O)NC4 [Midostaurin] (first compound 2 µM, partner dose 0.08 µM)",149%,129%,178%,103%,27.3%,120%,71.1%,81.8%,220%,81.8%

# Given tab-delimited: entries from further up
SMILES	cleaved PARP positive nuclei fraction (MZ2-MEL)	cleaved PARP positive nuclei fraction (MeWo)	cleaved PARP positive nuclei fraction (RPMI7951)	cleaved PARP positive nuclei fraction (RVH-421)	cleaved PARP positive nuclei fraction (SkMel28)	cleaved PARP positive nuclei fraction (SkMel2)	cleaved PARP positive nuclei fraction (SkMel30)	cleaved PARP positive nuclei fraction (SkMel5)	cleaved PARP positive nuclei fraction (UACC257)	cleaved PARP positive nuclei fraction (UACC62)
CC(=O)c1c(C)c2cnc(Nc3ccc(N4CCNCC4)cn3)nc2n(C2CCCC2)c1=O [palbociclib] + C[C@@H]1CCN(C(=O)CC#N)C[C@@H]1N(C)c1ncnc2[nH]ccc12 [CP690550] (first compound 0.04 µM, partner dose 1 µM)	161%	142%	61.7%	92.1%	142%	54.8%	95.1%	140%	307%	86.9%
Clc1ccc(Nc2nnc(Cc3ccncc3)c3ccccc23)cc1 [vatalanib] + O=C(Nc1cccc(Cl)c1)Nc1ncc(CCNc2ncnc3ccsc23)s1 [SNS314] (first compound 2 µM, partner dose 0.0008 µM)	170%	128%	69.8%	25.9%	111%	95.5%	217%	70.6%	100%	75.7%
